Measured values published in doi:10.1101/2025.07.31.666261.
No constants are given. Whether binding was seen depends on the method and setting. Some results given as binding are weak or reduced against the parent protein; the word gives no strength. Tags and fused reporters may be left off the sequences shown.

Chains of the proteins cited; added tags and fusions are not shown. Lines headed by an entry give the natural chain unless they say otherwise; changes in a name come on top. A line that says so, or that is headed by a name, gives the form on record, which may keep a tag or linker. Residues count along the entry.
Gal-9 R65A fused with EGFP, expressed in 293T cells (O00182, form named): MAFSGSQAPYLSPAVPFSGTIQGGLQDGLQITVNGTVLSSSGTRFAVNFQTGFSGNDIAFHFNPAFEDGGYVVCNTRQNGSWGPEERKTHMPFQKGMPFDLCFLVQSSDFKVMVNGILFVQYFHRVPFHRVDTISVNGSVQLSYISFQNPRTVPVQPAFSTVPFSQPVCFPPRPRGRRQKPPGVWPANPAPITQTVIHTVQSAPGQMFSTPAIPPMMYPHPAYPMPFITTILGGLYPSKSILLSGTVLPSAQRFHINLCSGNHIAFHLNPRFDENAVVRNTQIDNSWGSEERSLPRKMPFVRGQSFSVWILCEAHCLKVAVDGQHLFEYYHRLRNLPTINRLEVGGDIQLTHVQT
UniProt Q8TDQ0, residues 22-202: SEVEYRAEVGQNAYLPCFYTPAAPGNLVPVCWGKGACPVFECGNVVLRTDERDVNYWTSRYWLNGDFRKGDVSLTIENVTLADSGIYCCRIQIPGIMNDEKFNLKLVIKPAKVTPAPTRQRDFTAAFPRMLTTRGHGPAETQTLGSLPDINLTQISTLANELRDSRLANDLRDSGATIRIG
UniProt P42081, residues 24-247: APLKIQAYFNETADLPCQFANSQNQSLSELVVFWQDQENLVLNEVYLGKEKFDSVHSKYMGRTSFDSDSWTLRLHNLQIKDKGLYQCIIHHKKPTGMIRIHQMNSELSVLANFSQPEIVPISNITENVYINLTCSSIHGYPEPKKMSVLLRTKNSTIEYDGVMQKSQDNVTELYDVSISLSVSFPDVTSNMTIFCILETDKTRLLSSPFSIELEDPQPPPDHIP
UniProt P10747, residues 19-152: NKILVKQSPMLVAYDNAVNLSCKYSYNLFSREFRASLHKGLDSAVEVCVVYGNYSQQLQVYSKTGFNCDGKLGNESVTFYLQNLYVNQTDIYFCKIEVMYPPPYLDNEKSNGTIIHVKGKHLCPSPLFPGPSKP
UniProt Q15116, residues 25-170: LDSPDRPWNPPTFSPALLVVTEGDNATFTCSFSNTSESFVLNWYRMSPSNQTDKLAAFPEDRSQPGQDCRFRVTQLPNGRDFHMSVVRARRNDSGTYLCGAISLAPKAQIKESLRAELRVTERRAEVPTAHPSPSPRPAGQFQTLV

Columns and labels:
[1] = molecular target: full-length human Gal-9 fused with EGFP, expressed in 293T cells (human) (UniProt O00182); experiment: flow cytometry on cells
[2] = molecular target: Gal-9 R65A fused with EGFP, expressed in 293T cells (human) (UniProt O00182); experiment: flow cytometry on cells

Molecule | binding [1] | binding [2]
human B7-H1-Fc (from UniProt Q9NZQ7-1 19-238) (Fc fusion) | binds weakly | –
human TIM-3-Fc (from UniProt Q8TDQ0-1 22-202) (Fc fusion) | – | binds
human B7.2-Fc (from UniProt P42081-1 24-247) (Fc fusion) | binds | –
human CD28-Fc (from UniProt P10747-1 19-152) (Fc fusion) | binds | binds
human B7-H3-Fc (Fc fusion, UniProt Q5ZPR3-2 29-248) LEVQVPEDPVVALVGTDATLCCSFSPEPGFSLAQLNLIWQLTDTKQLVHSFAEGQDQGSAYANRTALFPDLLAQGNASLRLQRVRVADEGSFTCFVSIRDFGSAAVSLQVAAPYSKPSMTLEPNKDLRPGDTVTITCSSYRGYPEAEVFWQDGQGVPLTGNVTTSQMANEQGLFDVHSVLRVVLGANGTYSCLVRNPVLQQDAHGSVTITGQPMTFPPEA | binds weakly | –

Further lines, results first:

binding [1] | binding [2] | Molecule
binds | – | human B7.1-Fc (from UniProt P33681-1 35-242) (Fc fusion)
binds | – | human PD-1-Fc (from UniProt Q15116 25-170) (Fc fusion)
binds | binds | human 2B4-Fc (Fc fusion, UniProt Q9BZW8-2 22-224) CQGSADHVVSISGVPLQLQPNSIQTKVDSIAWKKLLPSQNGFHHILKWENGSLPSNTSNDRFSFIVKNLSLLIKAAQQQDSGLYCLEVTSISGKVQTATFQVFVFDKVEKPRLQGQGKILDRGRCQVALSCLVSRDGNVSYAWYRGSKLIQTAGNLTYLDEEVDINGTHTYTCNVSNPVSWESHTLNLTQDCQNAHQEFRFWP
binds | binds | human SLAMF1-Fc (Fc fusion, UniProt Q13291-1 21-237) ASYGTGGRMMNCPKILRQLGSKVLLPLTYERINKSMNKSIHIVVTMAKSLENSVENKIVSLDPSEAGPPRYLGDRYKFYLENLTLGIRESRKEDEGWYLMTLEKNVSVQRFCLQLRLYEQVSTPEIKVLNKTQENGTCTLILGCTVEKGDHVAYSWSEKAGTHPLNPANSSHLLSLTLGPQHADNIYICTVSNPISNNSQTFSPWPGCRTDPSETKP
binds | – | human B7-H2-Fc (Fc fusion, UniProt O75144-1 19-256) DTQEKEVRAMVGSDVELSCACPEGSRFDLNDVYVYWQTSESKTVVTYHIPQNSSLENVDSRYRNRALMSPAGMLRGDFSLRLFNVTPQDEQKFHCLVLSQSLGFQEVLSVEVTLHVAANFSVPVVSAPHSPSQDELTFTCTSINGYPRPNVYWINKTDNSLLDQALQNDTVFLNMRGLYDVVSVLRIARTPSVNIGCCIENVLLQQNLTVGSQTGNDIGERDKITENPVSTGEKNAAT
binds | – | human B7-DC-Fc (Fc fusion, UniProt Q9BQ51-1 20-220) LFTVTVPKELYIIEHGSNVTLECNFDTGSHVNLGAITASLQKVENDTSPHRERATLLEEQLPLGKASFHIPQVQVRDEGQYQCIIIYGVAWDYKYLTLKVKASYRKINTHILKVPETDEVELTCQATGYPLAEVSWPNVSVPANTSHSRTPEGLYQVTSVLRLKPPPGRNFSCVFWNTHVRELTLASIDLQSQMEPRTHPT
